Results from PMC6805484.
Results are given in words; binding and its absence hold for the method and conditions named. In cells and extracts the contact can be indirect. These calls come from enrichment with a bait or labelling near it, and not all partners need be listed. Sequences can lack the tags named with a protein.

T1: GFP-MKRN1^wt (Makorin Ring Finger Protein 1, wild type, N-terminally GFP-tagged) (human) (UniProt Q9UHC7)
T1 sequence: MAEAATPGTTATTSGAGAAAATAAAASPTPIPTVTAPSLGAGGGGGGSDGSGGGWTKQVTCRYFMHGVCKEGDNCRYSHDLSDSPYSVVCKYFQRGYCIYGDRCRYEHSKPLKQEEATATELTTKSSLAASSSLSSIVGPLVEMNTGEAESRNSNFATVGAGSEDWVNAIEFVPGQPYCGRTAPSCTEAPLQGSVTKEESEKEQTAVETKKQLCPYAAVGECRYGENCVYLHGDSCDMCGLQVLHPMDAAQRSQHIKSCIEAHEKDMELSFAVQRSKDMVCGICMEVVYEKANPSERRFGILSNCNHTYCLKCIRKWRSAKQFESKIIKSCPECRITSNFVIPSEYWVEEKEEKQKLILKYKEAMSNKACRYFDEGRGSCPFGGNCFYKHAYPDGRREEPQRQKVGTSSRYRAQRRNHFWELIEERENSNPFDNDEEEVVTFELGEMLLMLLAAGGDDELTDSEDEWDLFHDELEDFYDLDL


Molecular target: T1, GFP-MKRN1^wt (Makorin Ring Finger Protein 1, wild type, N-terminally GFP-tagged) (human)
Experiment: affinity purification with mass spectrometry; GFP-trap agarose beads with cleared lysates of HEK293T cells transiently expressing N-terminally GFP-tagged MKRN1 wt or mutants (medium or heavy SILAC) or GFP alone (light SILAC); mRIPA buffer, 1 h at 4 °C; three replicates, FDR < 5%

| binding | Binder |
| --- | --- |
| binds | MOV10 (endogenous) (protein, UniProt Q9HCE1 1-1003) MPSKFSCRQLREAGQCFESFLVVRGLDMETDRERLRTIYNRDFKISFGTPAPGFSSMLYGMKIANLAYVTKTRVRFFRLDRWADVRFPEKRRMKLGSDISKHHKSLLAKIFYDRAEYLHGKHGVDVEVQGPHEARDGQLLIRLDLNRKEVLTLRLRNGGTQSVTLTHLFPLCRTPQFAFYNEDQELPCPLGPGECYELHVHCKTSFVGYFPATVLWELLGPGESGSEGAGTFYIARFLAAVAHSPLAAQLKPMTPFKRTRITGNPVVTNRIEEGERPDRAKGYDLELSMALGTYYPPPRLRQLLPMLLQGTSIFTAPKEIAEIKAQLETALKWRNYEVKLRLLLHLEELQMEHDIRHYDLESVPMTWDPVDQNPRLLTLEVPGVTESRPSVLRGDHLFALLSSETHQEDPITYKGFVHKVELDRVKLSFSMSLLSRFVDGLTFKVNFTFNRQPLRVQHRALELTGRWLLWPMLFPVAPRDVPLLPSDVKLKLYDRSLESNPEQLQAMRHIVTGTTRPAPYIIFGPPGTGKTVTLVEAIKQVVKHLPKAHILACAPSNSGADLLCQRLRVHLPSSIYRLLAPSRDIRMVPEDIKPCCNWDAKKGEYVFPAKKKLQEYRVLITTLITAGRLVSAQFPIDHFTHIFIDEAGHCMEPESLVAIAGLMEVKETGDPGGQLVLAGDPRQLGPVLRSPLTQKHGLGYSLLERLLTYNSLYKKGPDGYDPQFITKLLRNYRSHPTILDIPNQLYYEGELQACADVVDRERFCRWAGLPRQGFPIIFHGVMGKDEREGNSPSFFNPEEAATVTSYLKLLLAPSSKKGKARLSPRSVGVISPYRKQVEKIRYCITKLDRELRGLDDIKDLKVGSVEEFQGQERSVILISTVRSSQSFVQLDLDFNLGFLKNPKRFNVAVTRAKALLIIVGNPLLLGHDPDWKVFLEFCKENGGYTGCPFPAKLDLQQGQNLLQGLSKLSPSTSGPHSHDYLPQEREGEGGLSLQVEPEWRNEL |
| binds | UPF1 (endogenous) (protein, UniProt Q92900 1-1129) MSVEAYGPSSQTLTFLDTEEAELLGADTQGSEFEFTDFTLPSQTQTPPGGPGGPGGGGAGGPGGAGAGAAAGQLDAQVGPEGILQNGAVDDSVAKTSQLLAELNFEEDEEDTYYTKDLPIHACSYCGIHDPACVVYCNTSKKWFCNGRGNTSGSHIVNHLVRAKCKEVTLHKDGPLGETVLECYNCGCRNVFLLGFIPAKADSVVVLLCRQPCASQSSLKDINWDSSQWQPLIQDRCFLSWLVKIPSEQEQLRARQITAQQINKLEELWKENPSATLEDLEKPGVDEEPQHVLLRYEDAYQYQNIFGPLVKLEADYDKKLKESQTQDNITVRWDLGLNKKRIAYFTLPKTDSGNEDLVIIWLRDMRLMQGDEICLRYKGDLAPLWKGIGHVIKVPDNYGDEIAIELRSSVGAPVEVTHNFQVDFVWKSTSFDRMQSALKTFAVDETSVSGYIYHKLLGHEVEDVIIKCQLPKRFTAQGLPDLNHSQVYAVKTVLQRPLSLIQGPPGTGKTVTSATIVYHLARQGNGPVLVCAPSNIAVDQLTEKIHQTGLKVVRLCAKSREAIDSPVSFLALHNQIRNMDSMPELQKLQQLKDETGELSSADEKRYRALKRTAERELLMNADVICCTCVGAGDPRLAKMQFRSILIDESTQATEPECMVPVVLGAKQLILVGDHCQLGPVVMCKKAAKAGLSQSLFERLVVLGIRPIRLQVQYRMHPALSAFPSNIFYEGSLQNGVTAADRVKKGFDFQWPQPDKPMFFYVTQGQEEIASSGTSYLNRTEAANVEKITTKLLKAGAKPDQIGIITPYEGQRSYLVQYMQFSGSLHTKLYQEVEIASVDAFQGREKDFIILSCVRANEHQGIGFLNDPRRLNVALTRARYGVIIVGNPKALSKQPLWNHLLNYYKEQKVLVEGPLNNLRESLMQFSKPRKLVNTINPGARFMTTAMYDAREAIIPGSVYDRSSQGRPSSMYFQTHDQIGMISAGPSHVAAMNIPIPFNLVMPPMPPPGYFGQANGPAAGRGTPKGKTGRGGRQKNRFGLPGPSQTNLPNSQASQDVASQPFSQGALTQGYISMSQPSQMSQPGLSQPELSQDSYLGDEFKSQIDVALSQDSTYQGERAYQHGGVTGLSQY |
